Record: PubChem BioAssay AID1259405 (NCATS, 2018)

Assay: 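Silenced genes that increase secreted GFP made by CHO cells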 (primary screen)
Cell system: Chinese hamster CHO-K1 ovary cells with stable secreted eGFP expression
Reagents: single siRNA against mouse genes, 0.8 pmol siRNA per well (2 µl of 400 nM stock)
Time to read-out: 3 days
Detection: 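Per-well intracellular GFP measured by laser scanning cytometry, plus viability from ATP luminescence, each relative to plate median of non-targeting control wells, in %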
Direction: GFP, % of control: higher = more GFP per well, higher productivity; viability (ATP), % of control: higher = more viable cells (more ATP)
Active means: 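Called active when intracellular GFP, relative to negative control, is at or above 120%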
The deposit covers about 50,000 reagents; this is a part drawn at random. About 4,000 of them (8%) were called active. 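Mouse siRNA library applied to hamster cells; one well for each siRNA.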 A number with no mark means an inactive call. Reagents against one gene are numbered here.

no.	gene	reagent	GFP, % of control	viability (ATP), % of control
1	Macroh2a3 (GeneID 67552)	1	118	109
2	Macroh2a3 (GeneID 67552)	2	85.9	102
3	Macroh2a3 (GeneID 67552)	3	93.2	97.2
4	Rap2c (GeneID 72065)	1	150 (active)	94.4
5	Rap2c (GeneID 72065)	2	96	87.5
6	Rap2c (GeneID 72065)	3	120 (active)	82.1
7	Plk1 (GeneID 18817)	1	46.7	17.7
8	Pdgfb (GeneID 18591)	1	81	80
9	Pdgfb (GeneID 18591)	2	51.7	59.6
10	Pdgfb (GeneID 18591)	3	102	78.1
11	Abca7 (GeneID 27403)	1	55.8	111
12	Abca7 (GeneID 27403)	2	72	82.3
13	Abca7 (GeneID 27403)	3	102	82.5

The list goes on (2 carried over from the part before).
no.	gene	reagent	GFP, % of control	viability (ATP), % of control
12	Abca7 (GeneID 27403)	2	72	82.3
13	Abca7 (GeneID 27403)	3	102	82.5
14	Cd81 (GeneID 12520)	1	42.6	80.7
15	Cd81 (GeneID 12520)	2	80.3	103
16	Cd81 (GeneID 12520)	3	72.6	70.9
17	Gdf2 (GeneID 12165)	1	53.6	58.1
18	Gdf2 (GeneID 12165)	2	35.3	46.5
19	Gdf2 (GeneID 12165)	3	35.8	59.2
20	Ntaq1 (GeneID 76773)	1	151 (active)	103
21	Ntaq1 (GeneID 76773)	2	39.2	58.2
22	Ntaq1 (GeneID 76773)	3	73.3	66.4
23	Ntaq1 (GeneID 76773)	4	83.6	98.9
24	Ntaq1 (GeneID 76773)	5	66.5	95.3
25	Ntaq1 (GeneID 76773)	6	84.7	86.1
26	H2bc3 (GeneID 319178)	1	92.6	60.3
27	H2bc3 (GeneID 319178)	2	132 (active)	76.9
28	H2bc3 (GeneID 319178)	3	95.6	77.1
29	Zfp113 (GeneID 56314)	1	50.5	44.6
30	Zfp113 (GeneID 56314)	2	60.4	63.7
31	Zfp113 (GeneID 56314)	3	34.6	69
32	Lag3 (GeneID 16768)	1	152 (active)	64.9
33	Lag3 (GeneID 16768)	2	46.3	64.5
34	Lag3 (GeneID 16768)	3	74.6	34.4
